Data on 38 variants can be found in the supplement of paper PMC6445147.

This is a noisy data set.

Sequences and labels used below:
B1: human tRNA-Pro; a variant is named by its letters at N, in order (parent)
chain: GGCTCGTTGGTCTAGNGGTATGATTCTCGCTTAGGGTGCGAGAGGTCCCGGGTTCNNATCCCGGACGAGCCC

Variants of B1 are the subject of this series. In words: tRNA 5' processing efficiency (processed reads / all reads, maximum-likelihood estimate) (fraction); higher = more efficient 5' processing. To be noted: HEK293T; construct: CMV Pol-II promoter ((+)CMV library, decapped).
As for GGCTCGTTGGTCTGGGGCTATGATTCTCGCTTAGGGTGCGAGAGGTCCCGGGTTCTAATCCCGGACGAGCCC, the “tRNA 5' processing efficiency” value was 0.2.
In the case of GGCTCGTTGGTCTAAGGTTTTGATTCTCGCTTAGGGTGCGAGAGGTCCCGGGTTCTAAACCCGGACGAGCCC it was 0.25; in that of GGCTCGTCGGTCTAGGCTTATGATTCTCGCTTAGGGTGCGAGAGGTCCCGGGCTCGCATCCCGGACGAGCCC, 0.4.
In the case of GGCTCGTTTGTCTAGGCATTTGATTCTCGCTTAGGGTGCGAGAGGTCCCGGGTTTTAATCCCGGACGAGCCC it was 0.25; in that of GGCTCGTTCGTCTAGCGGTATGATTCTCGCTTAGGGTGCGAGAGGTCCCGGGTTCTAATCCCGGACGAGCCC, 0.25.
In the case of GGCTCGTTGGTCTGGGTGTGTGATTCTCGCTTAGGGTGCGAGAGGTCCCGGGTTTTAACCCCGGACGAGCCC it was 0.5.
As to GGCTCGTTAGTCTAGGGCTATGATTCTCGCTTAGGGTGCGAGAGGTCCCGGGTCCTAATCCCGGACGAGCCC, the “tRNA 5' processing efficiency” value was 0.07.
For the variant GGCTCGTTTGTCTAGGCGTATGATTCTCGCTTAGGGTGCGAGAGGTCCCGGGTTCTAATCCCGGACGAGCCC, the “tRNA 5' processing efficiency” value is 0.33.
For the variant GGCTCGTTGGTCTAGGCGAGTGATTCTCGCTTAGGGTGCGAGAGGTCCCGGGTTGTAATCCCGGACGAGCCC, the “tRNA 5' processing efficiency” value is 0.25.
With GGCTCGTTGGTCTCGAGGTATGATTCTCGCTTAGGGTGCGAGAGGTCCCGGGTTCGTATCCCGGACGAGCCC, the “tRNA 5' processing efficiency” value was 0.33.
Take GGCTCGTTCGTCTGAGGGTATGATTCTCGCTTAGGGTGCGAGAGGTCCCGGGTTATAATCCCGGACGAGCCC: the “tRNA 5' processing efficiency” value was 0.25.
For GGCTCGTTGGTCTAGCAGTATGATTCTCGCTTAGGGTGCGAGAGGTCCCGGGTTTGCATCCCGGACGAGCCC, the “tRNA 5' processing efficiency” value is 0.5.
In the case of GGCTCGTTGGTCTAATGGTATGATTCTCGCTTAGGGTGCGAGAGGTCCCGGGTCCTAATCCCGGACGAGCCC, the “tRNA 5' processing efficiency” value was 0.17.
Consider GGCTCGTTGGTCTCGAGGTTTGATTCTCGCTTAGGGTGCGAGAGGTCCCGGGTTCGCATCCCGGACGAGCCC, for which the “tRNA 5' processing efficiency” value was 0.43.
As to GGCTCGTTGGTCTAGGGGTATGATTCTCGCTTAGGGTGCGAGAGGTCCCGGGTGCGAATCCCGGACGAGCCC, the “tRNA 5' processing efficiency” value was 0.29.
In the case of GGCTCGTTAGTCTAGTAGTATGATTCTCGCTTAGGGTGCGAGAGGTCCCGGGTCTTAAACCCGGACGAGCCC, the “tRNA 5' processing efficiency” value was 0.33.
For the variant GGCTCGTTGGTCTAGGGGTATGATTCTCGCTTAGGGTGCGAGAGGTCCCGGGTTCGTGTCCCGGACGAGCCC, the “tRNA 5' processing efficiency” value was 0.2.
In the case of GGCTCGTTAGTCTAGAGGAATGATTCTCGCTTAGGGTGCGAGAGGTCCCGGGTTCGTATCCCGGACGAGCCC it was 0.25; in that of GGCTCGTTTGTCTAAGACTATGATTCTCGCTTAGGGTGCGAGAGGTCCCGGGTCCTAATCCCGGACGAGCCC, 0.5.
The result for GGCTCGTTAGTCTCGGGGTATGATTCTCGCTTAGGGTGCGAGAGGTCCCGGGTTCTAATCCCGGACGAGCCC reads 0.05; that for GGCTCGTTAGTCTAGGGGCATGATTCTCGCTTAGGGTGCGAGAGGTCCCGGGTTGTAATCCCGGACGAGCCC, 0.13; that for GGCTCGTTGGTCTTGGTGTATGATTCTCGCTTAGGGTGCGAGAGGTCCCGGGTTCGTATCCCGGACGAGCCC, 0.2.
In the case of GGCTCGTTGGTCTCGAGGTATGATTCTCGCTTAGGGTGCGAGAGGTCCCGGGATATAATCCCGGACGAGCCC it was 0.71.
Consider GGCTCGTTGGTCTACGCGTATGATTCTCGCTTAGGGTGCGAGAGGTCCCGGGTTCTAAGCCCGGACGAGCCC, for which the “tRNA 5' processing efficiency” value was 0.2.
In the case of GGCTCGTTGGTCTAAGGGTGTGATTCTCGCTTAGGGTGCGAGAGGTCCCGGGTGCTAATCCCGGACGAGCCC it was 0.2; in that of GGCTCGTTGGTCTATGAGTATGATTCTCGCTTAGGGTGCGAGAGGTCCCGGGTTAGGATCCCGGACGAGCCC, 0.08.
As to GGCTCGTTGGTCTCGCTGTATGATTCTCGCTTAGGGTGCGAGAGGTCCCGGGTTCTAATCCCGGACGAGCCC, the “tRNA 5' processing efficiency” value was 0.7.
Turning to GGCTCGTTAGTCTAGCGGTATGATTCTCGCTTAGGGTGCGAGAGGTCCCGGGATCTAAACCCGGACGAGCCC, the “tRNA 5' processing efficiency” value was 0.33.
The result for GGCTCGTTGGTCTACGCTTATGATTCTCGCTTAGGGTGCGAGAGGTCCCGGGTTCTAATCCCGGACGAGCCC reads 0.57; that for GGCTCGTTGGTCTAGGAGAATGATTCTCGCTTAGGGTGCGAGAGGTCCCGGGATCTATTCCCGGACGAGCCC, 0.25; that for GGCTCGTTGGTCTAGTGGTTTGATTCTCGCTTAGGGTGCGAGAGGTCCCGGGTGCGCATCCCGGACGAGCCC, 0.2.
The result for GGCTCGTTAGTCTACGGGTATGATTCTCGCTTAGGGTGCGAGAGGTCCCGGGTTCGGTCCCCGGACGAGCCC reads 0.13.
GGCTCGTTGGTCTAGAGGTATGATTCTCGCTTAGGGTGCGAGAGGTCCCGGGCTCGACTCCCGGACGAGCCC: the “tRNA 5' processing efficiency” value was 0.5.
In the case of GGCTCGTTTGTCTAGAGACATGATTCTCGCTTAGGGTGCGAGAGGTCCCGGGTTCTAATCCCGGACGAGCCC, the “tRNA 5' processing efficiency” value was 0.33.
In the case of GGCTCGTTTGTCTTGAGGTATGATTCTCGCTTAGGGTGCGAGAGGTCCCGGGTTCTAATCCCGGACGAGCCC it was 0.14.
GGCTCGTTGGTCTAGGGGAATGATTCTCGCTTAGGGTGCGAGAGGTCCCGGGATCGAATCCCGGACGAGCCC: the “tRNA 5' processing efficiency” value was 0.2.
In the case of GGCTCGTTGGTCTGGGGGTATGATTCTCGCTTAGGGTGCGAGAGGTCCCGGGCTCTAATCCCGGACGAGCCC, the “tRNA 5' processing efficiency” value was 0.33.
In the case of GGCTCGTTGGTCTAGGGGAATGATTCTCGCTTAGGGTGCGAGAGGTCCCGGGTTTGAATCCCGGACGAGCCC it was 0.17.
